# Values quoted from earlier work, collected in patent publication US7625879B2 (priority 1998, dated 2009).
# Some entries share one result that the patent states for a list of compounds.
# Tested on: human Tγ9δ2 lymphocytes
# Conditions: best results obtained, prior art compounds; cited from earlier work
substance,measurement,value
dimethylallyl-UTP,minimum active concentration (no activity demonstrated below),≥ 0.3 µM
